Reference: the supplement of paper PMC8728848
Some of the results follow.

Assays:
Test in all cases: glycan array binding signal (z-score within array); higher = stronger binding
Details in all cases: glycan notation: IUPAC condensed, linker removed
[1] = biological target: GalNAc(b1-4)GlcNAc(b1-2)Man
Outline: (§1)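 Glycan array data were curated from 3228 arrays in the Consortium for Functional Glycomics database and kept only where the protein sequence was available. Glycan names were converted to IUPAC-condensed notation, and columns mapping to the same glycan were averaged. The binding signal is a within-array Z-score, averaged across arrays of the same protein sequence at different concentrations or buffers and across linkers. Negative Z-scores can be read as non-binding.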

[2] = biological target: GalNAc(b1-4)GlcNAc(b1-2)Man(a1-3)[GalNAc(b1-4)GlcNAc(b1-2)Man(a1-6)]Man(b1-4)GlcNAc(b1-4)GlcNAc
Outline: as §1

[3] = biological target: GalNAc(b1-4)GlcNAc(b1-3)GalNAc(b1-4)GlcNAc
Outline: as §1

GalNAc(b1-4)GlcNAc6S = biological target: GalNAc(b1-4)GlcNAc6S
Outline: as §1

GalNAc(b1-6)GalNAc = biological target: GalNAc(b1-6)GalNAc
Outline: as §1

GalNAc3S(b1-4)GlcNAc = biological target: GalNAc3S(b1-4)GlcNAc
Outline: as §1

GalNAc3S(b1-4)GlcNAc3S = biological target: GalNAc3S(b1-4)GlcNAc3S
Outline: as §1

[4] = biological target: GalNAc3S(b1-4)[Fuc(a1-3)]GlcNAc
Outline: as §1

GalNAc4S6S(b1-4)GlcNAc = biological target: GalNAc4S6S(b1-4)GlcNAc
Outline: as §1

GalNAc6S(b1-4)GlcNAc = biological target: GalNAc6S(b1-4)GlcNAc
Outline: as §1

Glc(a1-4)Glc = biological target: Glc(a1-4)Glc
Outline: as §1

[5] = biological target: Glc(a1-4)Glc(a1-4)Glc(a1-4)Glc
Outline: as §1

Glc(a1-6)Glc(a1-6)Glc = biological target: Glc(a1-6)Glc(a1-6)Glc
Outline: as §1

[6] = biological target: Glc(a1-6)Glc(a1-6)Glc(a1-6)Glc
Outline: as §1

Glc(b1-4)Glc = biological target: Glc(b1-4)Glc
Outline: as §1

Glc(b1-6)Glc = biological target: Glc(b1-6)Glc
Outline: as §1

GlcA(b1-3)Gal = biological target: GlcA(b1-3)Gal
Outline: as §1

GlcA(b1-3)GlcNAc = biological target: GlcA(b1-3)GlcNAc
Outline: as §1

GlcA(b1-6)Gal = biological target: GlcA(b1-6)Gal
Outline: as §1

[7] = biological target: GlcA3S(b1-3)Gal(b1-4)GlcNAc(b1-2)Man
Outline: as §1

[8] = biological target: GlcA3S(b1-3)Gal(b1-4)GlcNAc(b1-3)Gal(b1-4)Glc
Outline: as §1

[9] = biological target: GlcNAc(a1-3)Gal(b1-4)GlcNAc
Outline: as §1

[10] = biological target: GlcNAc(a1-4)Gal(b1-3)GlcNAc
Outline: as §1

[11] = biological target: GlcNAc(a1-4)Gal(b1-4)GalNAc
Outline: as §1

[12] = biological target: GlcNAc(a1-4)Gal(b1-4)GlcNAc
Outline: as §1

[13] = biological target: GlcNAc(a1-4)Gal(b1-4)GlcNAc(b1-3)Gal(b1-4)Glc
Outline: as §1

[14] = biological target: GlcNAc(a1-4)Gal(b1-4)GlcNAc(b1-3)Gal(b1-4)GlcNAc
Outline: as §1

[15] = biological target: GlcNAc(a1-4)Gal(b1-4)GlcNAc(b1-3)Gal(b1-4)GlcNAc(b1-3)Gal(b1-4)GlcNAc
Outline: as §1

[16] = biological target: GlcNAc(a1-4)Gal(b1-4)GlcNAc(b1-3)Gal(b1-4)[Fuc(a1-3)]GlcNAc(b1-3)Gal(b1-4)[Fuc(a1-3)]GlcNAc
Outline: as §1

[17] = biological target: GlcNAc(a1-6)Gal(b1-4)GlcNAc
Outline: as §1

[18] = biological target: GlcNAc(b1-2)Gal(b1-3)GalNAc
Outline: as §1

[19] = biological target: GlcNAc(b1-2)Man(a1-3)[GlcNAc(b1-2)Man(a1-6)]Man(b1-4)GlcNAc(b1-4)GlcNAc
Outline: as §1

[20] = biological target: GlcNAc(b1-2)Man(a1-3)[GlcNAc(b1-2)Man(a1-6)]Man(b1-4)GlcNAc(b1-4)[Fuc(a1-6)]GlcNAc
Outline: as §1

[21] = biological target: GlcNAc(b1-2)Man(a1-3)[GlcNAc(b1-4)][GlcNAc(b1-2)Man(a1-6)]Man(b1-4)GlcNAc(b1-4)GlcNAc
Outline: as §1

[22] = biological target: GlcNAc(b1-2)Man(a1-3)[GlcNAc(b1-4)][GlcNAc(b1-2)Man(a1-6)]Man(b1-4)GlcNAc(b1-4)[Fuc(a1-6)]GlcNAc
Outline: as §1

[23] = biological target: GlcNAc(b1-2)[GlcNAc(b1-4)]Man(a1-3)[GlcNAc(b1-2)Man(a1-6)]Man(b1-4)GlcNAc(b1-4)GlcNAc
Outline: as §1

[24] = biological target: GlcNAc(b1-2)[GlcNAc(b1-4)]Man(a1-3)[GlcNAc(b1-4)][GlcNAc(b1-2)Man(a1-6)]Man(b1-4)GlcNAc(b1-4)GlcNAc
Outline: as §1

[25] = biological target: GlcNAc(b1-2)[GlcNAc(b1-4)]Man(a1-3)[GlcNAc(b1-4)][GlcNAc(b1-2)[GlcNAc(b1-6)]Man(a1-6)]Man(b1-4)GlcNAc(b1-4)GlcNAc
Outline: as §1

[26] = biological target: GlcNAc(b1-2)[GlcNAc(b1-4)]Man(a1-3)[GlcNAc(b1-4)][GlcNAc(b1-2)[GlcNAc(b1-6)]Man(a1-6)]Man(b1-4)GlcNAc(b1-4)[Fuc(a1-6)]GlcNAc
Outline: as §1

[27] = biological target: GlcNAc(b1-2)[GlcNAc(b1-6)]Man(a1-6)[GlcNAc(b1-2)Man(a1-3)]Man(b1-4)GlcNAc(b1-4)GlcNAc
Outline: as §1

[28] = biological target: GlcNAc(b1-2)[GlcNAc(b1-6)]Man(a1-6)[GlcNAc(b1-2)Man(a1-3)]Man(b1-4)GlcNAc(b1-4)[Fuc(a1-6)]GlcNAc
Outline: as §1

[29] = biological target: GlcNAc(b1-2)[GlcNAc(b1-6)]Man(a1-6)[GlcNAc(b1-4)][GlcNAc(b1-2)Man(a1-3)]Man(b1-4)GlcNAc(b1-4)GlcNAc
Outline: as §1

GlcNAc(b1-3)Fuc = biological target: GlcNAc(b1-3)Fuc
Outline: as §1

GlcNAc(b1-3)Gal = biological target: GlcNAc(b1-3)Gal
Outline: as §1

[30] = biological target: GlcNAc(b1-3)Gal(b1-3)GalNAc
Outline: as §1

B1: FimA-N2 (Actinomyces oris) (protein)
chain: MHHHHHHSSGVDLGTENLYFQSNAWIYDVNVYPKNEAIDVDKTIQAQKLNGYGVGSLIKFPVESTAPTLDAKSFYKYFQLKDTLDERLSEVTATDVSLEGTPLQPTDYKVETKQQTVTVTFTAEGLKKIKAAPGKKVSAVFQGKVTKAGNGAITNRAQVISDTLYAEQPPTPETPPTDPENPPTSDEVISRWGDLSIKKVDTHQQGQTKA
glycan array binding signal (z-score) [1]: 0.453 | glycan array binding signal (z-score) [2]: -0.274 | glycan array binding signal (z-score) [3]: -1.4 | glycan array binding signal (z-score) (GalNAc(b1-4)GlcNAc6S): -0.333 | glycan array binding signal (z-score) (GalNAc(b1-6)GalNAc): 0.791 | glycan array binding signal (z-score) (GalNAc3S(b1-4)GlcNAc): 1.34 | glycan array binding signal (z-score) (GalNAc3S(b1-4)GlcNAc3S): 0.248 | glycan array binding signal (z-score) [4]: -0.131 | glycan array binding signal (z-score) (GalNAc4S6S(b1-4)GlcNAc): -0.331 | glycan array binding signal (z-score) (GalNAc6S(b1-4)GlcNAc): 0.507 | glycan array binding signal (z-score) (Glc(a1-4)Glc): -0.155 | glycan array binding signal (z-score) [5]: -1.2 | glycan array binding signal (z-score) (Glc(a1-6)Glc(a1-6)Glc): -0.88 | glycan array binding signal (z-score) [6]: -0.067 | glycan array binding signal (z-score) (Glc(b1-4)Glc): 1.36 | glycan array binding signal (z-score) (Glc(b1-6)Glc): 1.14 | glycan array binding signal (z-score) (GlcA(b1-3)Gal): 1.18 | glycan array binding signal (z-score) (GlcA(b1-3)GlcNAc): 0.654 | glycan array binding signal (z-score) (GlcA(b1-6)Gal): -0.409 | glycan array binding signal (z-score) [7]: 1.93 | glycan array binding signal (z-score) [8]: 0.823 | glycan array binding signal (z-score) [9]: 0.476 | glycan array binding signal (z-score) [10]: -1.05 | glycan array binding signal (z-score) [11]: -0.936 | glycan array binding signal (z-score) [12]: -0.453 | glycan array binding signal (z-score) [13]: 1.3 | glycan array binding signal (z-score) [14]: -1.07 | glycan array binding signal (z-score) [15]: -0.394 | glycan array binding signal (z-score) [16]: 1.2 | glycan array binding signal (z-score) [17]: -0.598 | glycan array binding signal (z-score) [18]: -0.039 | glycan array binding signal (z-score) [19]: -0.426 | glycan array binding signal (z-score) [20]: 0.635 | glycan array binding signal (z-score) [21]: -0.61 | glycan array binding signal (z-score) [22]: 0.09 | glycan array binding signal (z-score) [23]: -0.263 | glycan array binding signal (z-score) [24]: -0.99 | glycan array binding signal (z-score) [25]: -1.24 | glycan array binding signal (z-score) [26]: -0.355 | glycan array binding signal (z-score) [27]: 0.506 | glycan array binding signal (z-score) [28]: 0.065 | glycan array binding signal (z-score) [29]: -1 | glycan array binding signal (z-score) (GlcNAc(b1-3)Fuc): -0.215 | glycan array binding signal (z-score) (GlcNAc(b1-3)Gal): -0.666 | glycan array binding signal (z-score) [30]: 0.241
